For at least one compound, name, drawing or mass did not settle the structure.
Tested on: Hep3B cells
Experiment: In vitro cell proliferation assay of Hep3B cell line, compound A with other anticancer agents (Example 6B)
Assay type: cell-based, human
Details: agent in combination with compound A; 3, 4 or 6 days
Experimental: Cell culture/Growth Inhibition Assay: Human hepatocelluar carcinoma Hep3B cells were obtained from ATCC (Manassas, Va.). Hep3B cells were maintained in EMEM supplemented with 10% fetal bovine serum, penicillin (100 U/ml), and streptomycin (100 μg/ml). Cells were maintained at 37° C., 5% CO2, and 100% humidity. For cell proliferation experiments, cells were plated in white 96-well plates with clear bases at either 3000 cells/100 μl/well, 2000 cells/100 μl/well or 1000 cells/100 μl/well and treated as follows for 3 days, 4 days, or 6 days respectively. […] Following incubation for the indicated time at 37° C., ATP levels were determined using CellTiterGlo (Promega, Madison, Wis.) and reading luminescence values using a Lit Biosystems Analyst HT (Sunnyvale, Calif.). The ATP level for each dose combination was determined in triplicate using independent wells, and the experiment was performed several times. […] For comparison, the dose response for each single agent was also determined. The relative cell proliferation number was determined with the following formula: […]

CCN(CC)CCNC(=O)c1c(C)[nH]c(/C=C2\C(=O)Nc3ccc(F)cc32)c1C [Sunitinib]
synergy with compound A in cell proliferation: no synergy

— US9095581B2, “Combinations of MEK inhibitors and Raf kinase inhibitors and uses thereof” (Ardea Biosciences, Inc., priority 2008, dated 2015)
